PubChem BioAssay AID896 (National Center for Advancing Translational Sciences (NCATS), 2007)
Inconclusive results, whose numbers are uncertain, are shown. A potency beside an inconclusive call is a rough fit, not a confirmed value. A note “side channel” means that the fit belongs to a control or component signal, not to the main read-out.

Target: Caspase-1 (Homo sapiens) (UniProt P29466)
Experiment: Confirmation Concentration-Response Assay for Allosteric/Competitive Inhibitors of Caspase-1
Settings: purified caspase-1, fluorogenic substrate cleavage; active means well fitted inhibition curve with a large enough effect in the main read-out, with a control signal flat; inconclusive means small, poorly fitted or top-dose-only effect, or a change in a side signal; inactive means no such curve, though single readings can be large or run the other way
From the text: NIH Molecular Libraries Screening Centers Network [MLSCN]
NIH Chemical Genomics Center [NCGC]
PI Name: Dr. James Wells,
Dr. Enrique Perez-Paya, Dr.Janice Williams, Dr. Dennis Wolan, a person
The caspases (Cysteine Aspartyl Protease) comprise a related family of 14 dimeric proteases that are critical mediators of apoptosis (programmed cell death) and inflammation. The caspases represent an important class of drug targets for stroke, ischemia, cancer and inflammatory diseases. […] One goal of this project was to identify compounds that act as allosteric inhibitors via stabilizing the procaspase form of the enzyme. […]
The biochemical assay was configured using purified caspase 1 at a high enzyme concentration to promote formation of the homodimers and thus facilitate the identification of allosteric inhibitors. […] After initiation of the assay with substrate the plates were rapidly read using an automated robotic system (Kalypsys, Inc.) to maintain consistent timing. […] Product formation was also measured after 1 hour. […]
Caspase 1 was prepared in buffer (50 mM HEPES pH 7.5, 50 mM KCl, 200 mM NaCl, 10 mM DTT, 0.1% CHAPS) at a concentration of 66.6 nM and 3 uL was dispensed to all wells using black solid Kalypsys 1536-well plates. […] The plates were then exposed using 405 nm excitation/520 nm emission filters for 4 sec and read at 20 sec intervals for 3 min. […]

C[C@]12Cc3cn4c(nc3C=C1CC[C@H]1[C@@H]2CC[C@@]2(C)[C@H]1CC[C@@]2(O)C#N)nc1ccccc14
Potency: inconclusive: 12.6 µM [fluorescent, side channel, partial curve]
